Assay [1] concerns the target His-tagged green-light absorbing proteorhodopsin (GPR) (γ-proteobacterium) (UniProt Q6J4G7). Briefly: native gel or EMSA; BN-PAGE of untagged and His-tagged GPR containing E. coli membranes solubilized in DDM. (In general: Mobility shift assays separate free from complexed probe on a gel.)
Assay [2] concerns the target green-light absorbing proteorhodopsin (GPR), untagged (γ-proteobacterium) (UniProt Q6J4G7). The experiment in a line: condition: only acidic conditions (pH not given); SEC; membranes of GPR expressing E. coli solubilized under acidic conditions, analyzed directly by SEC. (SEC sorts molecules by how far they enter the pores of the column.)

These are yes or no findings as the source states them, for the method shown. Some results given as binding are weak or reduced against the parent protein; the word gives no strength. Where a sequence is shown, tags or fusion partners need not be part of it.

B1: His-tagged green-light absorbing proteorhodopsin (GPR) (protein, UniProt Q6J4G7 19-250)
chain: AGGGDLDASDYTGVSFWLVTAALLASTVFFFVERDRVSAKWKTSLTVSGLVTGIAFWHYMYMRGVWIETGDSPTVFRYIDWLLTVPLLICEFYLILAAATNVAGSLFKKLLVGSLVMLVFGYMGEAGIMAAWPAFIIGCLAWVYMIYELWAGEGKSACNTASPAVQSAYNTMMYIIIFGWAIYPVGYFTGYLMGDGGSALNLNLIYNLADFVNKILFGLIIWNVAVKESSNA
modifications: all-trans retinal covalently linked via a Schiff base to a conserved lysine
With B1, in assay [1], the binding result was “binds”.

B2: green-light absorbing proteorhodopsin (GPR), untagged (natural protein, γ-proteobacterium)
chain: MAGGGDLDASDYTGVSFWLVTAALLASTVFFFVERDRVSAKWKTSLTVSGLVTGIAFWHYMYMRGVWIETGDSPTVFRYIDWLLTVPLLICEFYLILAAATNVAGSLFKKLLVGSLVMLVFGYMGEAGIMAAWPAFIIGCLAWVYMIYELWAGEGKSACNTASPAVQSAYNTMMYIIIFGWAIYPVGYFTGYLMGDGGSALNLNLIYNLADFVNKILFGLIIWNVAVKESSNA
modifications: all-trans retinal covalently linked via a Schiff base to a conserved lysine
notes: N-terminal methionine added to the construct; theoretical MW of the monomer 25.5 kDa; Stop codon placed before the HRV 3C site and decahistidine-tag of pZUDF21, so no tag on the protein; Pentamer by crystallography and cryo-EM; also called untagged GPR; tag-free GPR; source: E. coli BL21(DE3) Rosetta2 (pZUDF21stop); purified from Cymal-5 solubilized membranes (Q Sepharose IEC, Superdex 200 SEC); …
Consider B2, for which, in assay [2], the binding result is reported as “no binding”.

(Values after publication PMC7337067, “Cryo-electron microscopic and X-ray crystallographic analysis of the light-driven proton pump proteorhodopsin reveals a pentameric assembly” (Journal of Structural Biology: X, 2020).)
